Patent US4105766A, “4,5-Dihydro-5-oxopyrazolo[1,5-a]quinazoline-3-carboxylic acid derivatives” (Sterling Drug Inc., priority 1977, dated 1978)
The name of at least one read-out is uncertain.

System: carrageenin-induced foot edema
Experiment: carrageenin-edema test (CE), inhibition of carrageenin-induced foot edema in rats
Assay type: in vivo
Description: (1) The inhibition of carrageenin-induced foot edema test essentially described by Winter et al., Proc. Soc. […] Therap. […] J. Vet. […] Arch. Allergy Appl. Immunol.
Here, and elsewhere in other tables which follow, compounds are identified by the Example number above where their preparations are recorded. For purposes of comparison, data are also given for the reference compound 4,5-dihydro-5-oxopyrazolo[1,5-a]quinazoline-3-carboxylic acid disclosed by Wright, ibid., identified here and elsewhere in the tables which follow as "Ref.".

O=C(O)c1cnn2c3ccccc3c(=O)n(CC3CC3)c12 [Example 7C]
% Inhibition C.E. (dose .08 mmole/kg.): 28%
% Inhibition C.E. (dose .324 mmole/kg.): 26%
